# Assay results: PubChem BioAssay AID1347423 (Functional Genomics Laboratory (NCATS/FGL), 2020)
# Hit rate of the full screen: of about 52,000 sequences, about 210 (0.4%) were called active.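 How the source made its calls: active means gene whose silencing raises cell survival under the drug, median off-target-corrected z-score across its silencing RNAs 2 or more; inactive means the rest.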 This is one part of the list.
# Test: Resistance to Poly (ADP-Ribose) Polymerase inhibitor: Gene Identification via Genome-wide siRNA Screen
# Conditions: mouse BRCA2 R2336H ES cells, olaparib, CellTiter-Glo viability; active compounds read high
# How it was run: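 Genome-wide siRNA screen (3 siRNAs/gene, 20 nM) in mouse ES cells carrying hypomorphic BRCA2 R2336H; olaparib 500 nM added 48 h post-transfection, CellTiter-Glo viability 72 h later. Normalized to plate-median negative control; MAD z-scores, gene median, seed-adjusted.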
row,Sequence,z-score
1,CCCUUUAGCUUCCUAAUGUTT against Rhag,inactive: -0.47
2,GGAUCAUGGAUAUACCACCTT against Smarcb1,inactive: -1.33
3,GGUUUUAUCAGAUCCCAAGTT against Dclre1c,inactive: 0.22
4,GCAAUAAUUUCUCACCUAGTT against Tcfe2a,inactive: -1.29
5,GGACCUGAAAAUCAAAUGATT against Arpc1b,inactive: 0.0829
6,GGAUUUGUUUUCAGAUGUGTT against 2810439M05Rik,inactive: -0.798
7,GCUAUCGGUGUCCUGACCATT against Pfkp,inactive: -0.134
8,CCCUUUUGAAAUUCUGACCTT against Zfp46,inactive: 0.54
9,CCGCUUGUAUUCGACUUAUTT against LOC433719,inactive: -2.51
10,GGUUAUAGCAAAGCUGAAATT against BC005752,inactive: -3.17
11,GGAGACGUGAUUGAAAGGGTT against Fabp6,inactive: -1.36
12,GGAGGACAUCAAUAAAACATT against Slc2a10,inactive: 0.111
13,GGCGGCCUUAGUAGAUAUCTT against Acsl4,inactive: -0.686
14,GGCCAAUCAAGAUAGCCACTT against Dnajc1,inactive: 1.32
15,GCCUUGUACCCUGUAGUGATT against Lalba,inactive: 0.475
16,GGACGACGACUUUGAGAGGTT against Map2k2,inactive: -0.963
17,GGAGAAAAAAAACUCCAUUTT against 1110008L20Rik,inactive: 0.502
18,CCCGCUCCUGUUUAGAUGUTT against D16Bwg1547e,inactive: -0.317
19,GCAAGUCACUUUGGUACCATT against Anxa1,inactive: -0.153
20,GGUGAAAAACUAGCUUAAATT against Zfp263,inactive: 1.09
21,ACCCUUUUGUUUACACUCUTT against Olfr763,inactive: -0.649
22,GAGAUCAGCUUCAAUGCUUTT against Olfr564,inactive: 0.892
23,CCACACACUGAUCAACGUGTT against Unc93b,inactive: -1.31
24,GGAGGAGUGGAUGUGAUUATT against Dao1,inactive: 1.26
25,GGCUAAAACAAGUGAAUGGTT against Gli3,inactive: 1.06
26,GGAUCUCUGGGUCUGAAAATT against AU022870,inactive: 0.918
27,GGAGCAGGAACAGUAUUUCTT against B3gnt6,inactive: 0.717

row,Sequence,z-score
1,GGCAAUAAAUGCUGAGUUATT against Fbxo15,inactive: 1.11
2,CCUCCUAUUUGGACAUUGCTT against 6330505F04Rik,inactive: -0.816
3,CCACUAAGUCCCAUGCUAGTT against Glycam1,inactive: -1.22
4,GGCAGGCUAACGAAGAAUATT against Tusc3,inactive: -1.58
5,GGUUAUAGAUGUAAAGUCUTT against C80587,inactive: -0.388
6,GGAGCUGUAUCGCACGAAATT against Ehd2,inactive: 0.217
7,GGGUGAUGGACAUAAAUGATT against Pcdhb17,inactive: -0.281
8,GGUAUGCAGUGAAGAGGAUTT against Paqr9,inactive: 0.0313
9,GCUUCAUUUAGCUUUAACUTT against Tpp2,inactive: -0.521
10,CGUUCAUAUAGAGAACUGUTT against Birc1a,inactive: 1.42
11,GGGCUUUUAAUAGAGGUAATT against Rras2,inactive: -1.1
12,GGAAGAGAAAACAACAGUUTT against Phactr4,inactive: -1.83
13,GCUACACAUGGGAACUAACTT against 4631405J19Rik,inactive: -0.51
14,CCUUGUAUCCUUAAUCCUCTT against Ppt1,inactive: 0.555
15,GGUCUUUGUUAAGAAUCCUTT against Myo1f,inactive: 1.03
16,UACAACCCGAAUGAAUCGUTT against Olfr129,inactive: -1.5
17,GCCAUGCUCACUGAACUUCTT against 1600031M04Rik,inactive: 1.23
18,CCACUAUGCUUCUUGGAAUTT against Serpini2,inactive: -0.623
19,GGUCAUGGCUGGAUUUCUUTT against Olfr1462,inactive: -1.5
20,CCUCCUUUGGACAACGGGUTT against Cyp7a1,inactive: 0.108
21,CGAUGUUUUCAUGAACGACTT against 0610012D17Rik,inactive: 0.421
22,CCUUCCUGUUGUCAUGAGATT against Tssc1,inactive: 0.354
23,GCCCUCGGAUAGAAUGGAUTT against Gm631,inactive: 0.242
24,GGAACUCACCUACCAAGAATT against 5530600A18Rik,inactive: -2.8
25,GCACAAGGUGUUUCAUUAATT against 5430416O09Rik,inactive: -0.849
26,GGCAGAGCUUGGAGUAUCUTT against Gtpbp4,inactive: -2.37
27,GGAUUAUCUUACAAUGUGGTT against Adam10,inactive: 0.459

# Some values from above:
# GGCGGCCUUAGUAGAUAUCTT against Acsl4 | z-score: inactive: -0.686
# GGUUAUAGAUGUAAAGUCUTT against C80587 | z-score: inactive: -0.388

# Reformatted as tab-separated lines: entries from further up.
row	Sequence	z-score
13	GGCGGCCUUAGUAGAUAUCTT against Acsl4	inactive: -0.686
15	GCCUUGUACCCUGUAGUGATT against Lalba	inactive: 0.475
3	CCACUAAGUCCCAUGCUAGTT against Glycam1	inactive: -1.22
4	GGCAGGCUAACGAAGAAUATT against Tusc3	inactive: -1.58
16	UACAACCCGAAUGAAUCGUTT against Olfr129	inactive: -1.5

# Continuation.

row,Sequence,z-score
1,GGAGAUUCUAGAUCAUCUATT against Phldb2,inactive: 1.72
2,GGGAUGUGAGCUUGGACUUTT against Phox2b,inactive: -0.891
3,GGAUGAUCGCUUUUGCUAUTT against Drd1ip,inactive: 0.327
4,GGCAUCUCUUCCAAGUUGGTT against 2410129H14Rik,inactive: 0.351
5,AUGCAUGAAAUCAUGUUGATT against Ndufa4,inactive: 0.492
6,CGAUUUAAGGAUUUUUACCTT against Tes3,inactive: -0.423
7,GGCCAAAGGCUCAGAUGAUTT against Hic2,inactive: -2.59
8,CGAGAUCAUCUCAAAUAUCTT against Man2a1,inactive: 0.266
9,GGACAGGAAUGCAUUUGUCTT against Cyfip2,inactive: 0.43
10,GUUCUUGGCAACAUGGCAGTT against Olfr551,inactive: -1.3
11,GCUGUUAAGUAAUGACAGATT against Chst7,inactive: -0.204
12,GCACAAUCCCAACUUGGAATT against Retnlg,inactive: 1.34
13,CCAUCUACACUUCCCUGCATT against BC048403,inactive: -1.64
14,GGAAAGGUAAUGCAUCACATT against Rev3l,inactive: -1.42
15,GCUGUCUGAUUGGGUCCUUTT against Lag3,inactive: 0.168
16,CGGUCUAAAUUUCCGGUCATT against NE,inactive: 1.51
17,GGGUUUUCUCAUUGUCUUUTT against Rce1,inactive: -0.507
18,GGUGACACUCAAGGUGUCATT against AA691260,inactive: 1.23
19,AUCAGUGGGUUAAAUAAAGTT against Cox11,inactive: -0.169
20,GGACAAACAGAACACAGUGTT against Ngfr,inactive: -0.618
21,CCCACAAGUGUAAAGAUCGTT against Ebag9,inactive: -0.282
22,GCAUCUCGUGAUAUAUAAGTT against Nudt9,inactive: 0.924
23,GGUGAUGUUCCCUGUUUUCTT against Gstt1,inactive: 1.1
24,CCGUAGUGGUAAACCUGGATT against Gcg,inactive: 1.34
25,GCGGAUCUGCUUUUUGCACTT against Ttc14,inactive: -0.346
26,GGUCAAGGUCAAAUAAAAGTT against Lgals2,inactive: 0.525
27,GGACCUCCCACAGUGUUAUTT against Enpp2,inactive: 0.697

row,Sequence,z-score
1,CGUGUAUCGCAGUUUGUCCTT against E2f3,inactive: 0.452
2,GGAGCUGGAAGAGGUGUUUTT against 5730593F17Rik,inactive: -1.16
3,GCACGCCUUACUGGAAUCCTT against Bub1,inactive: 2.17
4,GCAGUGUCGCAUUACAUCGTT against AU024582,inactive: 1.64
5,GGUGUUUGACACUCAAGCATT against V1rg6,inactive: 1.69
6,GCCACACACGAUUUCAAGUTT against Hist1h3a,inactive: 0.669
7,GGUAUGCGAUCAAACUUUUTT against Ttr,inactive: 0.647
8,GGACACUUGCUCGACUUCATT against 4732427B05,inactive: -3.46
9,GGAACUGGAUGAAUCAAAUTT against Ehbp1,inactive: -0.00833
10,GGCUGUCUCCGAACACUAUTT against 1300006C06Rik,inactive: 0.277
11,GGAUGUCUUUCCUACACGUTT against Mobkl2c,inactive: 0.014
12,GGGAAAUUUACAGAAAGUGTT against Igtp,inactive: 1.05
13,UGUGCCCUAUAGAACCUGUTT against Krtap13-1,inactive: 0.606
14,GGGCAGGUUGUCUUUCUACTT against Ppap2a,inactive: -0.428
15,GGAGCUAAAAACUUGUAUATT against Rpl23,inactive: -3.35
16,CGACUCCCACCUUUAGGAGTT against Nkx2-5,inactive: -0.695
17,CGAAACACCAGAUGUAUUCTT against Gck,inactive: 1.57
18,UUGCUAUAAGGGCAUGGAATT against LOC434448,inactive: 1.65
19,GGUUUUGGGAAGUUAUUAATT against D16Bwg1547e,inactive: 0.245
20,GGUAGAGGCAGUCAUGACATT against Abcg5,inactive: -0.172
21,GGAAGAGAAGAAGGAACUUTT against Ada,inactive: 2.4
22,GGUAUCCUGUCAUCAUGAGTT against Olfr272,inactive: 1.46
23,GCAAAUACCUGUUGAAUAATT against Timd4,inactive: -0.577
24,GGAAUACAGAUUUUUCAGATT against 4930488L10Rik,inactive: 0.839
